In one test the target is FLAG-tagged β-catenin (UniProt P35222). Put plainly: co-IP; HEK293 cells co-transfected with FLAG-β-catenin and myc-LRRK2, lysed 24 h later in 150 mM NaCl, 50 mM Tris pH 7.5, 2 mM EDTA, 1% Triton X-100; anti-FLAG M2 affinity gel 1 h at 4 °C, eluted with 3xFLAG peptide; blot for myc; no proteasome inhibitor.
Test [1] addresses GST-ECT (E-cadherin cytosolic tail expressed as a GST fusion protein) (human) (UniProt P12830). The test is described as follows: pull-down; GST-ECT on glutathione-Sepharose beads (20 μl) incubated overnight at 4 °C with mouse brain lysate (2 mg total protein; 50 mM Tris pH 7.5, 150 mM NaCl, 5 mM MgCl2, 1% NP-40); five washes; blot for β-catenin; brains of wild-type, Lrrk2 heterozygous and Lrrk2 knockout mice; only the target purified.

Amino acid sequences for entries named in this document (tags omitted). Residues count along the entry.
UniProt P35222: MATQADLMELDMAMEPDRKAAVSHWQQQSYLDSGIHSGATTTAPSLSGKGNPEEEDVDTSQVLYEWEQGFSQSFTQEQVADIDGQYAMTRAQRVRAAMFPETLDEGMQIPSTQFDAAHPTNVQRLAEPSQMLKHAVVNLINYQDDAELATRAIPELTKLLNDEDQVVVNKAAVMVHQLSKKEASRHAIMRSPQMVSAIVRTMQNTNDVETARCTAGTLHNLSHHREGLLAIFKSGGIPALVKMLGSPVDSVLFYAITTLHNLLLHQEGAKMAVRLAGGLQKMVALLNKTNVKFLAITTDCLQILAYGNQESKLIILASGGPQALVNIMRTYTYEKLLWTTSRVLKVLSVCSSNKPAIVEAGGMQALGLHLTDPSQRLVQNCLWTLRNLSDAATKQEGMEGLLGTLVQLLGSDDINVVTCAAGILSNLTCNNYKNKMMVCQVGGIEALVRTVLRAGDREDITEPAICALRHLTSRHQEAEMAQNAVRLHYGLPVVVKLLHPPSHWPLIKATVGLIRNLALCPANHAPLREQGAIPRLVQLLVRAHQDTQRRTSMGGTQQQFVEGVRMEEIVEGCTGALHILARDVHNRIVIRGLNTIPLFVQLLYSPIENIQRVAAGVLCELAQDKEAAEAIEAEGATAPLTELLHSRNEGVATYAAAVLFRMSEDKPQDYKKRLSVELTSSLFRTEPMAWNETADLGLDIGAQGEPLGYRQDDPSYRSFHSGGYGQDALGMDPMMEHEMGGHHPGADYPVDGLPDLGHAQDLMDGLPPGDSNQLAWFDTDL
UniProt P12830, residues 732-882: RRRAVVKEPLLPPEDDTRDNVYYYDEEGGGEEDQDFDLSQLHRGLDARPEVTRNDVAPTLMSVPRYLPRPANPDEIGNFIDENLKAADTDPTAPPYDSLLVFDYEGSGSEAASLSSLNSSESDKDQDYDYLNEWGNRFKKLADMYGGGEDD
UniProt Q5S007: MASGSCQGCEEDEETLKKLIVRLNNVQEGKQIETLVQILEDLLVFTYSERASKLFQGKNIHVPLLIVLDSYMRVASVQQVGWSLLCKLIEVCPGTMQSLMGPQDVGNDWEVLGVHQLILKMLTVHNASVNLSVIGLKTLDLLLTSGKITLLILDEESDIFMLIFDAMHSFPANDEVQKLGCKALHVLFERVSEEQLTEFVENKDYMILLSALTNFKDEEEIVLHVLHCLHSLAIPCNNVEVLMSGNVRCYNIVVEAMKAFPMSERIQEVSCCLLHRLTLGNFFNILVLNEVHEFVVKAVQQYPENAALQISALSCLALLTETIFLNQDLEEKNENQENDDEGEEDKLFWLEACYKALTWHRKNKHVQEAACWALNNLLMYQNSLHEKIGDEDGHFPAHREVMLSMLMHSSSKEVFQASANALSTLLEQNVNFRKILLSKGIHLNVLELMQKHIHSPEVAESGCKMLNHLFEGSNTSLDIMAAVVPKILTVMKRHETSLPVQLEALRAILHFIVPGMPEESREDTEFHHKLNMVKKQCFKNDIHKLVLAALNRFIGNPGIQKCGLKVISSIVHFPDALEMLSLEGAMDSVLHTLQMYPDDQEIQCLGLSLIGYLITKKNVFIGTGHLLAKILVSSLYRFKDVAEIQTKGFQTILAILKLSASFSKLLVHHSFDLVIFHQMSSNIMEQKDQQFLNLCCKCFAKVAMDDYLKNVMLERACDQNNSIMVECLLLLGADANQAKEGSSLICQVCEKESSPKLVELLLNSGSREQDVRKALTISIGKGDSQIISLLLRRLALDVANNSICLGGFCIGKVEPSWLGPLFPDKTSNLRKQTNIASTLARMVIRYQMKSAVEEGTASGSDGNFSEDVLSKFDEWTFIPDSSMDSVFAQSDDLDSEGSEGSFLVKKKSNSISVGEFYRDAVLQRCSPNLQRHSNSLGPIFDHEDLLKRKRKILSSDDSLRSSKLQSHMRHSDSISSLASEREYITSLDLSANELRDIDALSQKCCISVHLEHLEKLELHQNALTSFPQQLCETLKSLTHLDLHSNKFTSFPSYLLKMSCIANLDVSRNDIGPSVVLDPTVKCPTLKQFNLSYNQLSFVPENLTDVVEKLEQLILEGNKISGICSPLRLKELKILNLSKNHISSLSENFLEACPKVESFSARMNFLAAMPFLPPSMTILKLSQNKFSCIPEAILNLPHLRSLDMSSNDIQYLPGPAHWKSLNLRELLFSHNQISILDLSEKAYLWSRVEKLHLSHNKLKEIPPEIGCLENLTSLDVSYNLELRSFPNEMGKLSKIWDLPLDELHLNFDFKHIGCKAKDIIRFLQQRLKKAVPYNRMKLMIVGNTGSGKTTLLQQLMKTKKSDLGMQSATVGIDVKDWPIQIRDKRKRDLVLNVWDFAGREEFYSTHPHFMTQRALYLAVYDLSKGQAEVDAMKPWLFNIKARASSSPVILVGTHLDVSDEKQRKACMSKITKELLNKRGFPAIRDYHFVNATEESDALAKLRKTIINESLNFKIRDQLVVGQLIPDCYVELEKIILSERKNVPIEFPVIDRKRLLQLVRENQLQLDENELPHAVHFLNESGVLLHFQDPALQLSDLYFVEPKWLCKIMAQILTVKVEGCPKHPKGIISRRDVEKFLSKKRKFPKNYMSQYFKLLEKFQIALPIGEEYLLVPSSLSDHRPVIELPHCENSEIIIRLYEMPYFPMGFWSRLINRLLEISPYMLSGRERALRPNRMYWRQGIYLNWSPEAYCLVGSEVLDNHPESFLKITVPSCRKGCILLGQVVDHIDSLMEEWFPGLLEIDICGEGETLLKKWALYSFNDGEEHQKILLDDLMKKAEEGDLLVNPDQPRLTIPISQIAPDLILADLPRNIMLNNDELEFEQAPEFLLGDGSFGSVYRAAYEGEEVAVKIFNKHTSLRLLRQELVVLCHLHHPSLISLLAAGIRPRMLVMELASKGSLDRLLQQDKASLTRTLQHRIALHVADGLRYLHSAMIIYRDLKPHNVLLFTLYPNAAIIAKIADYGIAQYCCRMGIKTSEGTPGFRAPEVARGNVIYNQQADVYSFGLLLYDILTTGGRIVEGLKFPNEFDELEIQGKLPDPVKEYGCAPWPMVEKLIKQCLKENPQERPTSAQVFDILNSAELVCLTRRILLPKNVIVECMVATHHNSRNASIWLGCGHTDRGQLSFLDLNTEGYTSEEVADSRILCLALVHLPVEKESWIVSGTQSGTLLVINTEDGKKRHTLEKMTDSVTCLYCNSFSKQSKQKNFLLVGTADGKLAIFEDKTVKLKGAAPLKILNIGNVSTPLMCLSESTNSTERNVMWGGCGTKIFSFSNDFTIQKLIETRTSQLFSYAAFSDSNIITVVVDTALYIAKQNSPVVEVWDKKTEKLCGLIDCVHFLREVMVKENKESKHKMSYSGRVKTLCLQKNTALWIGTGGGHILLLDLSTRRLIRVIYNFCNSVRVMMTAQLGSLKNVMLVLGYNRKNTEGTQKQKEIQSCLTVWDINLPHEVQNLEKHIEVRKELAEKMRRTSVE
UniProt Q02248: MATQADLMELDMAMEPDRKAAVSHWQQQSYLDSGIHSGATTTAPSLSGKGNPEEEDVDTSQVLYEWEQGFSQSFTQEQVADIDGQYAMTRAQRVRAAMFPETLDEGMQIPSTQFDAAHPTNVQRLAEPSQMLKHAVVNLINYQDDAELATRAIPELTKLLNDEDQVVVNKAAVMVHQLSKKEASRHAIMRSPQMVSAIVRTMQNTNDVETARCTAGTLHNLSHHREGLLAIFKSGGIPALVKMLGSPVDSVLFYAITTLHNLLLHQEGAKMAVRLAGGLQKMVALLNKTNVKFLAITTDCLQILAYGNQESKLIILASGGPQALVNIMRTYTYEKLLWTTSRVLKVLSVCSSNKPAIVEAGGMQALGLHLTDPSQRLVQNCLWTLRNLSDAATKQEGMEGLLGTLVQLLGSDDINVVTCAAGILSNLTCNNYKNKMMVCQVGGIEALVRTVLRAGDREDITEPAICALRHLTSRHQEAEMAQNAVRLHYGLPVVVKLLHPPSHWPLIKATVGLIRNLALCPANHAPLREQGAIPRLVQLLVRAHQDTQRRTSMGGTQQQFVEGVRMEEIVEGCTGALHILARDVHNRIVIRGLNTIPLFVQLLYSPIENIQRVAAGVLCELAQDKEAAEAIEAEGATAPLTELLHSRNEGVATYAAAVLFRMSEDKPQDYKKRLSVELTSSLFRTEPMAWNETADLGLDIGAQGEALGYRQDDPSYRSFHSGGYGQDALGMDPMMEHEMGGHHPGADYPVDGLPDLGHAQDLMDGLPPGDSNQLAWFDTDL

For test [2] the target is unchanged. The test is described as above. The source holds these as a separate data set.

Like-named read-outs stand apart in the source and are kept apart here. These are yes or no findings as the source states them, for the method shown. In cells and extracts the contact can be indirect. Some entries that bind do so weakly or less than the wild type.

“myc-tagged LRRK2 (leucine-rich repeat kinase 2) (from UniProt Q5S007 1-2527)”: the binding entry in the test with FLAG-tagged β-catenin is “binds”.

With “β-catenin (free, monomeric; endogenous in mouse brain) (from UniProt Q02248 1-781)”, the binding entry in test [1] is “binds”.

B1: calnexin (endogenous in mouse brain) (protein, UniProt P35564 21-591)
chain: HDGHDDDAIDIEDDLDDVIEEVEDSKSKSDASTPPSPKVTYKAPVPTGEVYFADSFDRGSLSGWILSKAKKDDTDDEIAKYDGKWEVDEMKETKLPGDKGLVLMSRAKHHAISAKLNKPFLFDTKPLIVQYEVNFQNGIECGGAYVKLLSKTAELSLDQFHDKTPYTIMFGPDKCGEDYKLHFIFRHKNPKTGVYEEKHAKRPDADLKTYFTDKKTHLYTLILNPDNSFEILVDQSVVNSGNLLNDMTPPVNPSREIEDPEDRKPEDWDERPKIADPDAVKPDDWDEDAPSKIPDEEATKPEGWLDDEPEYIPDPDAEKPEDWDEDMDGEWEAPQIANPKCESAPGCGVWQRPMIDNPNYKGKWKPPMIDNPNYQGIWKPRKIPNPDFFEDLEPFKMTPFSAIGLELWSMTSDIFFDNFIISGDRRVVDDWANDGWGLKKAADGAAEPGVVLQMLEAAEERPWLWVVYILTVALPVFLVILFCCSGKKQSNAMEYKKTDAPQPDVKDEEGKEEEKNKRDEEEEEEKLEEKQKSDAEEDGVTGSQDEEDSKPKAEEDEILNRSPRNRKPRRE
For B1, in test [2], the binding entry is recorded as “no binding”.

The values above are taken from paper PMC5248453.
